Assay results reported in doi:10.1101/2022.12.25.521893 (bioRxiv, 2022).
Results are given in words; binding and its absence hold for the method and conditions named. For part of these data: Binding seen in cells or lysates may run through a third protein. Some binding calls cover weakened binding; strength is not graded here. For part of these data: Where a sequence is shown, tags or fusion partners need not be part of it.

By UniProt entry, the sequences of proteins in these tests, tags left out. Where a name states a change or a piece, a line headed by the entry shows the natural chain unless it says otherwise. Residues count along the entry.
UniProt Q83SQ0: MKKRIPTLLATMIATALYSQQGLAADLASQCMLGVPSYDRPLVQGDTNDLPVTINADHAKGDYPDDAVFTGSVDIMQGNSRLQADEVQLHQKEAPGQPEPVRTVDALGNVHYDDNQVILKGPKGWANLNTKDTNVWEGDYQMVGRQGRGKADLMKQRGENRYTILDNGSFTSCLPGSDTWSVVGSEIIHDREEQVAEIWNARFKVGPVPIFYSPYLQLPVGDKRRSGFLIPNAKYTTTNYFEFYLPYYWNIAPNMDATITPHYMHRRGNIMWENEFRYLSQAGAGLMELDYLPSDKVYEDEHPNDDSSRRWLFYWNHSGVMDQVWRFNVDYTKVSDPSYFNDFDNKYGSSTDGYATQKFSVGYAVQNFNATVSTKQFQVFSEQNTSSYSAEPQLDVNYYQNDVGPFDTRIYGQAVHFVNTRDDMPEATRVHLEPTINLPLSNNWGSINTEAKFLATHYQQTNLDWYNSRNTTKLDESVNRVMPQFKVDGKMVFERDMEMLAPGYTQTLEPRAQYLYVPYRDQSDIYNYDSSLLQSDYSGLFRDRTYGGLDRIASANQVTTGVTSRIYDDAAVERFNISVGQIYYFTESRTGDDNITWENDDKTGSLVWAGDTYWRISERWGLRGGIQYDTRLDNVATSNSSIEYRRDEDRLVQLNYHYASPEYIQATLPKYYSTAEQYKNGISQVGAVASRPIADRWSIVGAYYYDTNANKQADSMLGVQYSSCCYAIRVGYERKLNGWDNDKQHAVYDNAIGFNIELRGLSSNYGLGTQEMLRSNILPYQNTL
UniProt Q9I5U2, residues 34-924: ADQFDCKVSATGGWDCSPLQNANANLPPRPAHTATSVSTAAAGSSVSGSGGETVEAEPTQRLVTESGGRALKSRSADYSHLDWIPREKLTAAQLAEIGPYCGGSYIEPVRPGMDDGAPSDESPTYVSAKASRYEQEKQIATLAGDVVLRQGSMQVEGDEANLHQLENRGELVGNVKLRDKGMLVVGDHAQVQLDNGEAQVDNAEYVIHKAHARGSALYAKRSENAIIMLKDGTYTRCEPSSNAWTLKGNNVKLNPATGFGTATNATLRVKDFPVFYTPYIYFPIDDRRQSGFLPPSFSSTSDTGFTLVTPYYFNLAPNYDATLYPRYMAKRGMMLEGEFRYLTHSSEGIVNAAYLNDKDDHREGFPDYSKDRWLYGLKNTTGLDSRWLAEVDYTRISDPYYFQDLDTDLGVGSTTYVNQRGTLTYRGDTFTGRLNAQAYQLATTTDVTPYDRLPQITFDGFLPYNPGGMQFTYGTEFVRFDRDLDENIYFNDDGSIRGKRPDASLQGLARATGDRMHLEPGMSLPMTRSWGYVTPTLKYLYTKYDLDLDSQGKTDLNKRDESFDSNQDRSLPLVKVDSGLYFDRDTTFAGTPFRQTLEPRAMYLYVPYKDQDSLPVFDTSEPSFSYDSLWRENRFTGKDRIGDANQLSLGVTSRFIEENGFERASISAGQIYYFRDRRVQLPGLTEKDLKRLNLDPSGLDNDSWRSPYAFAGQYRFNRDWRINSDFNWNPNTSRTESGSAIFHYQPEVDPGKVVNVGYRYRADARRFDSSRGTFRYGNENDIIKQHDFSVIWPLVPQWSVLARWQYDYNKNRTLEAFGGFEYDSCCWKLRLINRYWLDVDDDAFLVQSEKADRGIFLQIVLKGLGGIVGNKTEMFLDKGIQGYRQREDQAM

B1: Lpp with a C-terminal Strep tag II (protein, UniProt P69776 21-78)
chain: CSSNAKIDQLSSDVQTLNAKVDQLSNDVNAMRSDVQAAKDDAARANQRLDNMATKYRK
B2: endogenous E. coli lipoprotein YedD (natural protein)
chain: CAEVENYNNVVKTPAPDWLAGYWQTKGPQRALVSPEAIGSLIVTKEGDTLDCRQWQRVIAVPGKLTLMSDDLTNVTVKRELYEVERDGNTIEYDGMTMERVDRPTAECAAALDKAPLPTPLP
B3: YbjP with a C-terminal Strep tag II (protein, UniProt P75818 19-171)
chain: CTTVTPAYKDNGTRSGPCVEGGPDNVAQQFYDYRILHRSNDITALRPYLSDKLATLLSDASRDNNHRELLTNDPFSSRTTLPDSAHVASASTIPNRDARNIPLRVDLKQGDQGWQDEVLMIQEGQCWVIDDVRYLGGSVHATAGTLRQSIENR
B4: Slp with a C-terminal Strep tag II (protein, UniProt P37194 19-188)
chain: CSSIPQNIKGNNQPDIQKSFVAVHNQPGLYVGQQARFGGKVINVINGKTDTLLEISVLPLDSYAKPDIEANYQGRLLARQSGFLDPVNYRNHFVTILGTIQGEQPGFINKVPYNFLEVNMQGIQVWHLREVVNTTYNLWDYGYGAFWPEPGWGAPYYTNAVSQVTPELVK
B5: Blc with a C-terminal Strep tag II (protein, UniProt P0A901 19-177)
chain: CSSPTPPRGVTVVNNFDAKRYLGTWYEIARFDHRFERGLEKVTATYSLRDDGGLNVINKGYNPDRGMWQQSEGKAYFTGAPTRAALKVSFFGPFYGGYNVIALDREYRHALVCGPDRDYLWILSRTPTISDEVKQEMLAVATREGFDVSKFIWVQQPGS

Legend:
[1] = molecular target: LptDE complex from Shigella flexneri with a hexahistidine tag on LptE (Shigella flexneri) (UniProt Q83SQ0); experiment: pull-down
[2] = molecular target: LptD from Pseudomonas aeruginosa (Pseudomonas aeruginosa) (UniProt Q9I5U2); experiment: crystal structure

Binder | binding [1] | binding [2]
B1 | binds | 
B2 | binds | 
B3 | binds | 
B4 | binds | 
B5 | binds | 
CGLKGPLYFPPADKNAPPPTKPVETQTQSTVPDKNDRATGDGPSQVNY (peptide, UniProt P0ADN6 20-67, three acyl chains (R1, R2, R3) on the N-terminal Cys of the mature lipoprotein) [endogenous Escherichia coli lipoprotein YifL] |  | binds
